The target of experiment [1] is T1, U2AF2 (human (endogenous in primary CD4 T cells and Jurkat cells)), P26368. The experiment is described as follows: affinity purification with mass spectrometry; as the U2AF2 RIP-MS, but RNAse A digestion on the beads (10 ug/ml for 30 minutes at RT) before elution; resting or activated CD4 T cells, n = 4/group. The following applies: remark: other sources report otherwise.

The chains behind the UniProt entries cited, without tags or fusion partners.
UniProt P26368: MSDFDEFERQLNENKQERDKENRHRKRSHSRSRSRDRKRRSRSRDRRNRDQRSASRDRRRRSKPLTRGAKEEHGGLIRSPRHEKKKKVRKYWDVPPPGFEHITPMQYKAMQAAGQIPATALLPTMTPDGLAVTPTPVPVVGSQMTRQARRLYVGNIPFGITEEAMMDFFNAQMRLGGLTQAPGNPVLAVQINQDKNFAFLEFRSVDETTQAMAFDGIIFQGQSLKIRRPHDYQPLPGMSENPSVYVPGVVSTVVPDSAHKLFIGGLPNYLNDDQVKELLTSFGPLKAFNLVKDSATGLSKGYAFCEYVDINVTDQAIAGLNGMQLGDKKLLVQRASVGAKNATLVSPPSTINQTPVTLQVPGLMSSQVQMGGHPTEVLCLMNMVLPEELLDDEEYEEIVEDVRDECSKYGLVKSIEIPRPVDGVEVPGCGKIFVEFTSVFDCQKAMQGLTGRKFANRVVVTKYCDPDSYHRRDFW

Experiment [2] addresses U2AF2 (human (endogenous in primary CD4 T cells and Jurkat cells)) (UniProt P26368). The experiment is described as follows: affinity purification with mass spectrometry; U2AF2 RIP from lysates (RIPA + NET-2 buffer) of resting or activated CD4 T cells, pre-cleared with mouse IgG beads, U2AF2 antibody on Protein G beads overnight at 4°C, 5 washes with NET-2, no RNase; TripleTOF 5600, n = 6/group.

Experiment [3] has as its target T1, U2AF2 (human (endogenous in primary CD4 …)). The experiment is described as above. The following applies: remark: other sources report otherwise.

No constants are given. Whether binding was seen depends on the method and setting. In cells and extracts the contact can be indirect. These calls come from enrichment with a bait or labelling near it, and not all partners need be listed.

B1: U2AF1, Q01081 1-240 (protein)
chain: MAEYLASIFGTEKDKVNCSFYFKIGACRHGDRCSRLHNKPTFSQTIALLNIYRNPQNSSQSADGLRCAVSDVEMQEHYDEFFEEVFTEMEEKYGEVEEMNVCDNLGDHLVGNVYVKFRREEDAEKAVIDLNNRWFNGQPIHAELSPVTDFREACCRQYEMGECTRGGFCNFMHLKPISRELRRELYGRRRKKHRSRSRSRERRSRSRDRGRGGGGGGGGGGGGRERDRRRSRDRERSGRF
Turning to B1, the binding result in experiment [1] was “binds”.

B2: hnRNPL (protein, UniProt P14866 1-589)
chain: MSRRLLPRAEKRRRRLEQRQQPDEQRRRSGAMVKMAAAGGGGGGGRYYGGGSEGGRAPKRLKTDNAGDQHGGGGGGGGGAGAAGGGGGGENYDDPHKTPASPVVHIRGLIDGVVEADLVEALQEFGPISYVVVMPKKRQALVEFEDVLGACNAVNYAADNQIYIAGHPAFVNYSTSQKISRPGDSDDSRSVNSVLLFTILNPIYSITTDVLYTICNPCGPVQRIVIFRKNGVQAMVEFDSVQSAQRAKASLNGADIYSGCCTLKIEYAKPTRLNVFKNDQDTWDYTNPNLSGQGDPGSNPNKRQRQPPLLGDHPAEYGGPHGGYHSHYHDEGYGPPPPHYEGRRMGPPVGGHRRGPSRYGPQYGHPPPPPPPPEYGPHADSPVLMVYGLDQSKMNCDRVFNVFCLYGNVEKVKFMKSKPGAAMVEMADGYAVDRAITHLNNNFMFGQKLNVCVSKQPAIMPGQSYGLEDGSCSYKDFSESRNNRFSTPEQAAKNRIQHPSNVLHFFNAPLEVTEENFFEICDELGVKRPSSVKVFSGKSERSSSGLLEWESKSDALETLGFLNHYQMKNPNGPYPYTLKLCFSTAQHAS
With B2, the binding result in experiment [2] is listed as “binds”.

B3: TRA2A (protein, UniProt Q13595 1-282)
chain: MSDVEENNFEGRESRSQSKSPTGTPARVKSESRSGSRSPSRVSKHSESHSRSRSKSRSRSRRHSHRRYTRSRSHSHSHRRRSRSRSYTPEYRRRRSRSHSPMSNRRRHTGSRANPDPNTCLGVFGLSLYTTERDLREVFSRYGPLSGVNVVYDQRTGRSRGFAFVYFERIDDSKEAMERANGMELDGRRIRVDYSITKRAHTPTPGIYMGRPTHSGGGGGGGGGGGGGGGGRRRDSYYDRGYDRGYDRYEDYDYRYRRRSPSPYYSRYRSRSRSRSYSPRRY
Regarding B3, in experiment [2], the binding entry is “binds”.

B4: hnRNPLL (protein, UniProt Q8WVV9 1-542)
chain: MSSSSSSPRETYEEDREYESQAKRLKTEEGEIDYSAEEGENRREATPRGGGDGGGGGRSFSQPEAGGSHHKVSVSPVVHVRGLCESVVEADLVEALEKFGTICYVMMMPFKRQALVEFENIDSAKECVTFAADEPVYIAGQQAFFNYSTSKRITRPGNTDDPSGGNKVLLLSIQNPLYPITVDVLYTVCNPVGKVQRIVIFKRNGIQAMVEFESVLCAQKAKAALNGADIYAGCCTLKIEYARPTRLNVIRNDNDSWDYTKPYLGRRDRGKGRQRQAILGEHPSSFRHDGYGSHGPLLPLPSRYRMGSRDTPELVAYPLPQASSSYMHGGNPSGSVVMVSGLHQLKMNCSRVFNLFCLYGNIEKVKFMKTIPGTALVEMGDEYAVERAVTHLNNVKLFGKRLNVCVSKQHSVVPSQIFELEDGTSSYKDFAMSKNNRFTSAGQASKNIIQPPSCVLHYYNVPLCVTEETFTKLCNDHEVLTFIKYKVFDAKPSAKTLSGLLEWECKTDAVEALTALNHYQIRVPNGSNPYTLKLCFSTSSHL
Regarding B4, the binding entry in experiment [2] was “binds”.

B5: SFRS10, P62995 1-288 (protein)
chain: MSDSGEQNYGERESRSASRSGSAHGSGKSARHTPARSRSKEDSRRSRSKSRSRSESRSRSRRSSRRHYTRSRSRSRSHRRSRSRSYSRDYRRRHSHSHSPMSTRRRHVGNRANPDPNCCLGVFGLSLYTTERDLREVFSKYGPIADVSIVYDQQSRRSRGFAFVYFENVDDAKEAKERANGMELDGRRIRVDFSITKRPHTPTPGIYMGRPTYGSSRRRDYYDRGYDRGYDDRDYYSRSYRGGGGGGGGWRAAQDRDQIYRRRSPSPYYSRGGYRSRSRSRSYSPRRY
As to B5, in experiment [3], the binding entry is listed as “binds”.

B6: SFRS7 (protein, UniProt Q16629 1-238)
chain: MSRYGRYGGETKVYVGNLGTGAGKGELERAFSYYGPLRTVWIARNPPGFAFVEFEDPRDAEDAVRGLDGKVICGSRVRVELSTGMPRRSRFDRPPARRPFDPNDRCYECGEKGHYAYDCHRYSRRRRSRSRSRSHSRSRGRRYSRSRSRSRGRRSRSASPRRSRSISLRRSRSASLRRSRSGSIKGSRYFQSPSRSRSRSRSISRPRSSRSKSRSPSPKRSRSPSGSPRRSASPERMD
B6: the binding entry in experiment [2] is “binds”.

B7: SFRS3 (protein, UniProt P84103 1-164)
chain: MHRDSCPLDCKVYVGNLGNNGNKTELERAFGYYGPLRSVWVARNPPGFAFVEFEDPRDAADAVRELDGRTLCGCRVRVELSNGEKRSRNRGPPPSWGRRPRDDYRRRSPPPRRRSPRRRSFSRSRSRSLSRDRRRERSLSRERNHKPSRSFSRSRSRSRSNERK
As to B7, in experiment [2], the binding result is recorded as “binds”.
